Experimental data reported in the supplement of paper PMC7666118.
This is one part of the list.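 The calls were made as follows: active = dose-dependent thermal stabilisation significant by F-test of dose-response against flat model at 10% FDR; inactive = not significant.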

Chains of the proteins cited; added tags and fusions are not shown. Lines headed by an entry give the natural chain unless they say otherwise; changes in a name come on top.
UniProt O60870: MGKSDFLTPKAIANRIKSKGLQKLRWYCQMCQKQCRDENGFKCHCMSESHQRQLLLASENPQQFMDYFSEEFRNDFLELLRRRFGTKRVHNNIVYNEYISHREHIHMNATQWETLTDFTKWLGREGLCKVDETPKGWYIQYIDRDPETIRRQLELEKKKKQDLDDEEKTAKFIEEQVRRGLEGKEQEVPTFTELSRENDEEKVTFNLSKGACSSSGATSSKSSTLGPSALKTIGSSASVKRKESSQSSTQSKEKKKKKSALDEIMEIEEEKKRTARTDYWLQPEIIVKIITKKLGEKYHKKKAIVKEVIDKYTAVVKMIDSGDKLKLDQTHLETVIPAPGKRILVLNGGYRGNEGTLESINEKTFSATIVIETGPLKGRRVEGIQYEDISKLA
UniProt Q16666: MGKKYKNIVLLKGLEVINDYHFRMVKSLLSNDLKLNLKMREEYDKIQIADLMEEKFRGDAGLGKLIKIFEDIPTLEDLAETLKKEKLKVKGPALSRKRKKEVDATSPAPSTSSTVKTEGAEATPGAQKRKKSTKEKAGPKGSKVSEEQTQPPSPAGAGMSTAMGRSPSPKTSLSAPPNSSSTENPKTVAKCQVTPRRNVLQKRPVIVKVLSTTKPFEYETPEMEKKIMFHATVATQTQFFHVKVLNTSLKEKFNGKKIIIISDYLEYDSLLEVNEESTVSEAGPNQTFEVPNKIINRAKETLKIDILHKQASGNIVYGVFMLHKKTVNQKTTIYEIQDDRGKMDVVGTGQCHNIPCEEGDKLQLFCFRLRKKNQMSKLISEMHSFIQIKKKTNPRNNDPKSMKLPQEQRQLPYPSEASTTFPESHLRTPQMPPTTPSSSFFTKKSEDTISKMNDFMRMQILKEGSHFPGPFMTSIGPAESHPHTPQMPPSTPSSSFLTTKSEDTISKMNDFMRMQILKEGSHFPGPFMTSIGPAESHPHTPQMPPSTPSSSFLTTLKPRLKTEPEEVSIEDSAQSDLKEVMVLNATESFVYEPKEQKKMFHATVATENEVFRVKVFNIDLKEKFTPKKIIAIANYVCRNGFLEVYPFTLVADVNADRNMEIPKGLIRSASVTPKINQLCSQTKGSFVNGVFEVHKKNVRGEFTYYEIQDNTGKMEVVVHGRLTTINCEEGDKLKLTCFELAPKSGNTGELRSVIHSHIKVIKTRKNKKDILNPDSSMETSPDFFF
UniProt Q1KMD3: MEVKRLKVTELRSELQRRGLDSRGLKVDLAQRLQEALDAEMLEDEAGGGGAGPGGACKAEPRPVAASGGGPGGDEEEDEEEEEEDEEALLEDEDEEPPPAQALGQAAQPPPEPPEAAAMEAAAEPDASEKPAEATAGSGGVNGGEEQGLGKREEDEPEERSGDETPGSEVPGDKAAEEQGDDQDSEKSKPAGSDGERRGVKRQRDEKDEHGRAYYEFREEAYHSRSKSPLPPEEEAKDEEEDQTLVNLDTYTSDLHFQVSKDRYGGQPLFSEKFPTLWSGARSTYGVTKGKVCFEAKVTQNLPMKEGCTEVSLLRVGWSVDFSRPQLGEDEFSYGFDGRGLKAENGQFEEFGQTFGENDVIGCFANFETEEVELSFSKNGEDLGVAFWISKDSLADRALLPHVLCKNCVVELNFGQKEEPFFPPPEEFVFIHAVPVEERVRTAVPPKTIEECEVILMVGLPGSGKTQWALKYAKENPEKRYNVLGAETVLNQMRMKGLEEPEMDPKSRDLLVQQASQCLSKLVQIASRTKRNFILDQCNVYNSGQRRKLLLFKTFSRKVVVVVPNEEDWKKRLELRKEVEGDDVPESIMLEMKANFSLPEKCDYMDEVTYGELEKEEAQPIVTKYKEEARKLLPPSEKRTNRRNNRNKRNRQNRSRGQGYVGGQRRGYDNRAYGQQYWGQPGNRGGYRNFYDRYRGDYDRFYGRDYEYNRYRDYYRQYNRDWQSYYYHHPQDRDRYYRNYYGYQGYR
UniProt O94889: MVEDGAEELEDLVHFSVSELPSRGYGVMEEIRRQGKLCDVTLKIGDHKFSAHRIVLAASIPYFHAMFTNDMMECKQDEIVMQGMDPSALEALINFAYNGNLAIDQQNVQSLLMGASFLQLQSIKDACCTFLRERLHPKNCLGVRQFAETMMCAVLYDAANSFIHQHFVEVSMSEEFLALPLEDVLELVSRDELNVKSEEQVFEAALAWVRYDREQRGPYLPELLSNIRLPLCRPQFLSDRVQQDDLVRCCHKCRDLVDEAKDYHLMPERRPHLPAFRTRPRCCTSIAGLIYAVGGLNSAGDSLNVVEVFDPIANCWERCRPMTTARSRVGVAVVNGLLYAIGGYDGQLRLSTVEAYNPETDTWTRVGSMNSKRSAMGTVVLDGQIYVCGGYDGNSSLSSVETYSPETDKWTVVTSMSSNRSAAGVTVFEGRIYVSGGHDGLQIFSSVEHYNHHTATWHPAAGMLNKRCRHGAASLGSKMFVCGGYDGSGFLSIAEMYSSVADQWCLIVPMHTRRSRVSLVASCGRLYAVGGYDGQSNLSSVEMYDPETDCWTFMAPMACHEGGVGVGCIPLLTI
UniProt P04792, whole entry: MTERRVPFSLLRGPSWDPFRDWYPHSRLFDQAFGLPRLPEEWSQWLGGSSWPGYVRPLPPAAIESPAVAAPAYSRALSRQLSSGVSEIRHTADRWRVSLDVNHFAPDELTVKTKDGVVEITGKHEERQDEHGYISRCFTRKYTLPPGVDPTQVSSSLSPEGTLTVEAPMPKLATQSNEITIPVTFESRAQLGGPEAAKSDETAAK
UniProt P61604, whole entry: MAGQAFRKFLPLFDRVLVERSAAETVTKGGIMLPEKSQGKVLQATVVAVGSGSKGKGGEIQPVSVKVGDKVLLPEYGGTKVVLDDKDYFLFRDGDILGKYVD
UniProt Q15811: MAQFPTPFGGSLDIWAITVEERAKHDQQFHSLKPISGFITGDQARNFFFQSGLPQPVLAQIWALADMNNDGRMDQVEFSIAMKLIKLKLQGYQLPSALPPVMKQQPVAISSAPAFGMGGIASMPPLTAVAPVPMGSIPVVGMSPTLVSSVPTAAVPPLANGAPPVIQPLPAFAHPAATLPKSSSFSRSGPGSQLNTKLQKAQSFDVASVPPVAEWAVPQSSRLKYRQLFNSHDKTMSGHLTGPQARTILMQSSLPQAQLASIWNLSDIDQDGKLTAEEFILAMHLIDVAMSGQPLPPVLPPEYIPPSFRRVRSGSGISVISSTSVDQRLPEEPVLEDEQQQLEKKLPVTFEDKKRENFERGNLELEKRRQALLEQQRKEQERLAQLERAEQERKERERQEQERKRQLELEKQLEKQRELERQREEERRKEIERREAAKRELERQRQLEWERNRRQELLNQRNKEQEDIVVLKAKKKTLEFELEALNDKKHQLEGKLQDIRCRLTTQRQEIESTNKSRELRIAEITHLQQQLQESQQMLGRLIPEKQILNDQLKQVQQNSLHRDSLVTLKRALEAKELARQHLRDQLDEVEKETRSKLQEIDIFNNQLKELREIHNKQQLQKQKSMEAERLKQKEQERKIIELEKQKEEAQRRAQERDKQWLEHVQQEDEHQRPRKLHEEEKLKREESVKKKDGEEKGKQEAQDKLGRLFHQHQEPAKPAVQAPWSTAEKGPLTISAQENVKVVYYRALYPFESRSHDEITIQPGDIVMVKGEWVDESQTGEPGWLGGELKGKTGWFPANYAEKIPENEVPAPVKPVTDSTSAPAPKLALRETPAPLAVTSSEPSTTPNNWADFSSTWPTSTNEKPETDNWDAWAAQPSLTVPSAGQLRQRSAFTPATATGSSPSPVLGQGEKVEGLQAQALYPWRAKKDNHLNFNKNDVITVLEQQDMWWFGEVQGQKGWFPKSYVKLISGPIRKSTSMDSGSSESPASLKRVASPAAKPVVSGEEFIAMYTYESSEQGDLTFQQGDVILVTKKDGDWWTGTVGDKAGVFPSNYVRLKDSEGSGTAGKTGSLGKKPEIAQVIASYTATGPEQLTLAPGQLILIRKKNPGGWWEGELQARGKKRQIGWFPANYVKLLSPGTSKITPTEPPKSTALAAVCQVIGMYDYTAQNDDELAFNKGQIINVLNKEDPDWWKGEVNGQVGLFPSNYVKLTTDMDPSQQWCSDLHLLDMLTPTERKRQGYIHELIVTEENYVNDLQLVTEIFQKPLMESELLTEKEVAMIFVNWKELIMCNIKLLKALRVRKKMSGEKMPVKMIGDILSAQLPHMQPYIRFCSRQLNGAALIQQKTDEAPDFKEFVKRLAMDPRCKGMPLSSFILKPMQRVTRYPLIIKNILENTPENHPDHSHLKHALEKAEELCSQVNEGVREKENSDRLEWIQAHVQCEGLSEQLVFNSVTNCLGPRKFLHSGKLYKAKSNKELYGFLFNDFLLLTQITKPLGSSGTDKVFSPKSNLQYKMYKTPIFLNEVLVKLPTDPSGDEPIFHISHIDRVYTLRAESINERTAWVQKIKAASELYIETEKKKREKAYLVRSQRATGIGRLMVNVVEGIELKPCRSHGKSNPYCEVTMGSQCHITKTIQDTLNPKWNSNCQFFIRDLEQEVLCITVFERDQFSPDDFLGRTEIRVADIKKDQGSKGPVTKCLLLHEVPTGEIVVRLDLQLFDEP
UniProt O95757: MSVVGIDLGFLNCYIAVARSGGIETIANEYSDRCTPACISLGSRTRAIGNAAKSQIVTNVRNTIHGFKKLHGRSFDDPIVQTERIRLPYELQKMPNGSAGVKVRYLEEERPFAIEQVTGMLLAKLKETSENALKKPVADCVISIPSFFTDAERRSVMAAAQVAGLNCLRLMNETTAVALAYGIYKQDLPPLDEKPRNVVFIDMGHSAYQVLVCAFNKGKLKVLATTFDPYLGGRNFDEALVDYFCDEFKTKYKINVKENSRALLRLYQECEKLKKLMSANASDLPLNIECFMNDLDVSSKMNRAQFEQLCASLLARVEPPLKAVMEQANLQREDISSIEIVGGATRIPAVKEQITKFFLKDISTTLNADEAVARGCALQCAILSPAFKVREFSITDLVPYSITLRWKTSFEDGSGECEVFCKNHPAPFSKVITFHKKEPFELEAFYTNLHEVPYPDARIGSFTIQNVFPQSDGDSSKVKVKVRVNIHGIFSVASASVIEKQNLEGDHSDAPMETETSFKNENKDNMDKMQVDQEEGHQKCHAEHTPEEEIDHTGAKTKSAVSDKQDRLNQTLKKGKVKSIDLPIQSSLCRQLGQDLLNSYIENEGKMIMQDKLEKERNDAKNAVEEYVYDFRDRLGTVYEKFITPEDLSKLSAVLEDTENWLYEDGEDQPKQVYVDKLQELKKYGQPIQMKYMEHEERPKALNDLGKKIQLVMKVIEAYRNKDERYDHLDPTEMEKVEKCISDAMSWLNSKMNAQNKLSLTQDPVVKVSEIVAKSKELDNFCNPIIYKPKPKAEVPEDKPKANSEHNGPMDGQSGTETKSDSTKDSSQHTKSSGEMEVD
UniProt Q9NSK0: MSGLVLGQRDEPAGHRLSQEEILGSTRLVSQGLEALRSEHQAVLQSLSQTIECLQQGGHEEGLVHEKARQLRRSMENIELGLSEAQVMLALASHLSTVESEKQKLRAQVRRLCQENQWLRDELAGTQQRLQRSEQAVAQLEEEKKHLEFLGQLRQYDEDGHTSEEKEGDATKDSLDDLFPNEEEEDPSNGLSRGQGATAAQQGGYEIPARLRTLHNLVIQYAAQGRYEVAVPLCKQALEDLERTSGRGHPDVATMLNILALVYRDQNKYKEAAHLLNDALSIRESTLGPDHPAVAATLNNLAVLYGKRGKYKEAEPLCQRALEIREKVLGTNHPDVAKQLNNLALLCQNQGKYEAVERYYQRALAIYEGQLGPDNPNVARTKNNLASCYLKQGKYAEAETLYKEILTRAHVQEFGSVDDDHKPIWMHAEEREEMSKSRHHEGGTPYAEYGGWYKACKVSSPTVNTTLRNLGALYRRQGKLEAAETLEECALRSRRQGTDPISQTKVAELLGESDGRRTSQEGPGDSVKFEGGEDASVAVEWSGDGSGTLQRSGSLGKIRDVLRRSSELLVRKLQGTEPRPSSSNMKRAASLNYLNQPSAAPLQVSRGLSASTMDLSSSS
UniProt Q8NFY9: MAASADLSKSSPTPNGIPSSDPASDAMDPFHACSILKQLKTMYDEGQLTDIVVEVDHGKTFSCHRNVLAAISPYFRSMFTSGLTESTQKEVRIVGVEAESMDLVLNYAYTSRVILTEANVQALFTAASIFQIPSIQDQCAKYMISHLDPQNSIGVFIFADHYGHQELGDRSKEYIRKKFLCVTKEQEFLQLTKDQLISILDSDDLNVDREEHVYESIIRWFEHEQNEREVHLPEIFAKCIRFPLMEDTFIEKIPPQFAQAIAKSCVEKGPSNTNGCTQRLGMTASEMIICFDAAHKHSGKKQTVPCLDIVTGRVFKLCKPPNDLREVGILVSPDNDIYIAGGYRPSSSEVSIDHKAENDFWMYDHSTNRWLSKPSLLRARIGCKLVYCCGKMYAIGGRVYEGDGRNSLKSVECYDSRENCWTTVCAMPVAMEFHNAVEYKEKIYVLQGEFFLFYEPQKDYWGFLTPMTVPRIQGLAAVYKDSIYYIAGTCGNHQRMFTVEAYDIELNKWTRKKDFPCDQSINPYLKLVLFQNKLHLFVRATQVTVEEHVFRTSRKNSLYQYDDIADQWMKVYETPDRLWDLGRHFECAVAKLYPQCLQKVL

compound: Nc1nc2c(ncn2[C@@H]2O[C@H](COP(=O)(O)OP(=O)(O)OP(=O)(O)O)[C@@H](O)[C@H]2O)c(=O)[nH]1; assay: dose-dependent thermal stabilisation call (2D-TPP, DLPTP, 10% FDR) (binary (1 = stabilised)); higher = stabilised by the compound; settings: system: Jurkat gel-filtered lysate; concentration range 1-500 µM
Description: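 2D thermal proteome profiling in gel-filtered Jurkat E6.1 lysate (2 mg/ml) treated with NaGTP (0, 1, 10, 100, 500 uM) for 10 min at room temperature, then heated 3 min at one of 12 temperatures (42-63.9 C). Soluble protein was quantified by TMT10 MS. The value is the DLPTP call of the paper: dose-dependent thermal stabilisation over all temperatures at 10% FDR (F-test of a dose-response against a flat model); one experiment, one call per tested protein.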

Target	dose-dependent thermal stabilisation call
KIN (UniProt O60870)	active: 1
IWS1 (UniProt Q96ST2)	inactive: 0
KPNA3 (UniProt O00505)	inactive: 0
LDB1 (UniProt Q86U70)	inactive: 0
KIAA0586 (UniProt Q9BVV6)	inactive: 0
IFI16 (UniProt Q16666)	inactive: 0
LIN9 (UniProt Q5TKA1)	inactive: 0
HSPD1 (UniProt P10809)	inactive: 0
HSD17B4 (UniProt P51659)	inactive: 0
HNRNPUL2 (UniProt Q1KMD3)	inactive: 0
KBTBD4 (UniProt Q9NVX7)	inactive: 0
LIMD2 (UniProt Q9BT23)	inactive: 0
KIF11 (UniProt P52732)	inactive: 0
IPO7 (UniProt O95373)	active: 1
JMJD6 (UniProt Q6NYC1)	inactive: 0
KHDRBS1 (UniProt Q07666)	active: 1
ILF2 (UniProt Q12905)	inactive: 0
KLHL18 (UniProt O94889)	inactive: 0
HSPB1 (UniProt P04792)	inactive: 0
HSPE1 (UniProt P61604)	inactive: 0

Reformatted: results already given
Target,dose-dependent thermal stabilisation call
KIAA0586 (UniProt Q9BVV6),inactive: 0
IFI16 (UniProt Q16666),inactive: 0

The list continues:

Target	dose-dependent thermal stabilisation call
JUND (UniProt P17535)	inactive: 0
ITSN1 (UniProt Q15811)	inactive: 0
HSPA4L (UniProt O95757)	active: 1
IRF2BP2 (UniProt Q7Z5L9)	inactive: 0
KLC4 (UniProt Q9NSK0)	active: 1
INTS5 (UniProt Q6P9B9)	inactive: 0
IMPDH2 (UniProt P12268)	inactive: 0
KBTBD8 (UniProt Q8NFY9)	inactive: 0
INPP5B (UniProt P32019)	active: 1
KPNB1 (UniProt Q14974)	active: 1
IMPDH1 (UniProt P20839)	active: 1
LAMP2 (UniProt P13473)	inactive: 0
HSPA1A (UniProt P0DMV8)	inactive: 0
KCNAB2 (UniProt Q13303)	inactive: 0
KPNA2 (UniProt P52292)	active: 1
ISL2 (UniProt Q96A47)	inactive: 0
HUWE1 (UniProt Q7Z6Z7)	inactive: 0
HRAS (UniProt P01112)	active: 1
LCOR (UniProt Q96JN0)	inactive: 0
KLC2 (UniProt Q9H0B6)	active: 1
